Molecules are shown by their SMILES. Several values for one entry are separate records, joined by “and”; a condition that tells them apart may be missing. Equal entries are not always repeated. Structures can show the parent of a compound that is named as a salt. ± gives the standard deviation of the averaged measurements. The list shows a part of the results. This is a noisy data set.

The test relates to Salmonella enterica serovar Typhimurium ST313 D23580. In words: normalized bacterial growth (OD600 20 h minus 0 h, interquartile-mean normalized) (fraction of plate interquartile mean); higher = more bacterial growth (less inhibition). Conditions: LPM (pH 5.8, low phosphate, low Mg2+), concentration: 10 µM, temperature: 37 °C.
With `COC(=O)c1c(C)c2c(c(C)c1O)OC(=O)c1c(C)c(Cl)c(O)c(Cl)c1O2`, the normalized bacterial growth was found to be 0.91.

In the case of `COc1cc2c(cc1OC)[C@@H]1Cc3ccc(OC)c(OC)c3CN1CC2`, the normalized bacterial growth was 0.78.

`NCCC(=O)c1ccccc1N` returned a normalized bacterial growth of 0.858.

Take `O=C(CCCN1CCC(O)(c2ccc(Cl)cc2)CC1)c1ccc(F)cc1` [Haloperidol]: the normalized bacterial growth worked out at 1.11.

Turning to `CCCCCCCCCCOc1cc2c(O)c(C(=O)OCC)cnc2cc1OCC`, the normalized bacterial growth was determined as 0.826.

Compound `C=CCc1ccc(O)c(-c2cc(CC=C)ccc2O)c1` showed a normalized bacterial growth of 0.756.

`COc1ccc2c(c1)C(=O)N(CCc1ccc(S(=O)(=O)NC(=O)NC3CCCCC3)cc1)C(=O)C2(C)C` [Gliquidone] showed a normalized bacterial growth of 0.971.

Compound `CC(C)c1cccc(=O)c(O)c1` yielded a normalized bacterial growth of 0.155.

Regarding `CC(=N)NCc1cccc(CN)c1` [1400W dihydrochloride], the normalized bacterial growth is 1.16.

In the case of `CN(C)CCN(Cc1ccc(Cl)cc1)c1ccccn1` [Chloropyramine hydrochloride], the normalized bacterial growth amounted to 1.03.

With `COc1ccc([C@@H]2Sc3ccccc3N(CCN(C)C)C(=O)[C@@H]2OC(C)=O)cc1`, the normalized bacterial growth came out at 0.556.

Consider `COc1ccc([C@@H]2Sc3ccccc3N(CCN(C)C)C(=O)[C@@H]2OC(C)=O)cc1` [Diltiazem hydrochloride], for which the normalized bacterial growth was found to be 0.844.

For the compound `N[C@@H](Cc1c[nH]cn1)C(=O)O` [L-Histidine hydrochloride], the normalized bacterial growth was determined as 0.877.

In turn, `CC(C[N+](C)(C)C)OC(N)=O` (stereo not given) [Bethanechol chloride] displayed a normalized bacterial growth of 1.15.

Take `COc1cc(/C=C(\C#N)C(=O)c2ccc(O)c(O)c2)cc(I)c1O` [I-OMe-Tyrphostin AG 538]: the normalized bacterial growth stood at 0.903.

Compound `NCCc1cc[nH]n1` [Betazole hydrochloride] returned a normalized bacterial growth of 1.09.

Take `Cc1c(NC(C)C)c(=O)n(-c2ccccc2)n1C`: the normalized bacterial growth turned out to be 1.18.

As for `O=c1cc(-c2ccc(O)cc2)oc2cc(O[C@@H]3O[C@H](CO)[C@@H](O)[C@H](O)[C@H]3O)cc(O)c12`, the normalized bacterial growth is 0.797 and 1.17.

`COc1c2c(cc3occ(-c4ccc5c(c4)OCO5)c(=O)c13)OC(C)(C)C=C2` gave a normalized bacterial growth of 0.641.

Compound `CC1(C)O[C@H]2[C@H](O)C[C@](O)(C(N)=O)C[C@H]2O1` yielded a normalized bacterial growth of 1.02.

`CC(C)(C)c1cc(/C=C(\C#N)C(N)=S)cc(C(C)(C)C)c1O` [Tyrphostin AG 879]: the normalized bacterial growth worked out at 0.933.

Regarding `CCC(=O)NCC[C@@H]1CCc2ccc3c(c21)CCO3`, the normalized bacterial growth came out at 1.39.

Consider `CC[C@H](/C=C/[C@@H](C)[C@H]1CC[C@H]2[C@@H]3CCC4=CC(=O)CC[C@]4(C)[C@H]3CC[C@]12C)C(C)C`, for which the normalized bacterial growth was found to be 1.36.

With `COc1ccc(-c2coc3cc(O)cc(O)c3c2=O)cc1`, the normalized bacterial growth stood at 0.977.

`CN1Cc2sccc2C(c2ccc(O)c(O)c2)C1` (stereo not given) registered a normalized bacterial growth of 1.36.

Regarding `COc1cc2c(cc1OC)C(=O)OC2`, the normalized bacterial growth was 0.939.

Take `COc1ccccc1N1CCN(CCN2C(=O)CC3(CCCC3)CC2=O)CC1` [BMY 7378 dihydrochloride]: the normalized bacterial growth came out at 0.92.

Turning to `OCC(O)CN1CCN(c2ccccc2)CC1` (stereo not given), the normalized bacterial growth came to 1.19.

In the case of `CN(C)CCC(c1ccc(Cl)cc1)c1ccccn1` (stereo not given) [()-Chlorpheniramine maleate], the normalized bacterial growth was 0.942.

`C[C@H](O)C(=O)C1=Nc2c(nc(N)[nH]c2=O)NC1` [Sepiapterin] showed a normalized bacterial growth of 1.05.

`COc1cc(N)c(Cl)cc1C(=O)NC1CCN(CCCOc2ccc(F)cc2)CC1OC` (stereo not given) [Cisapride] displayed a normalized bacterial growth of 0.918.

The compound `Nn1nnc2ccccc21` [1-Aminobenzotriazole] registered a normalized bacterial growth of 1.15.

With `CN(C)CCCC1(c2ccc(F)cc2)OCc2cc(C#N)ccc21` (stereo not given), the normalized bacterial growth was 1.07.

Compound `CN(C)CCCC1(c2ccc(F)cc2)OCc2cc(C#N)ccc21` (stereo not given) [Citalopram hydrobromide] showed a normalized bacterial growth of 0.588.

Take `CCCC(CCC)C(=O)O` [Valproic acid sodium]: the normalized bacterial growth came to 1.17.

Consider `Cc1onc(-c2ccccc2)c1C(=O)N[C@@H]1C(=O)N2[C@@H]1SC(C)(C)[C@@H]2C(=O)O`, for which the normalized bacterial growth is 1.3.

For the compound `COc1ccccc1CNCCCCCCNCCCCCCCCNCCCCCCNCc1ccccc1OC` [Methoctramine tetrahydrochloride], the normalized bacterial growth stood at 0.833.

For the compound `Cc1c(OCC(F)(F)F)ccnc1C[S+]([O-])c1nc2ccccc2[nH]1` (stereo not given) [Lansoprazole], the normalized bacterial growth is 1.04.

As to `O=C(/C=C/c1ccccc1)c1ccc(O)cc1O`, the normalized bacterial growth is 1.02.

In turn, `[N-]=[N+]=Nc1ccc(C(=O)CSC[C@H](NC(=O)CC[C@H](N)C(=O)O)C(=O)NCC(=O)O)cc1` [S-(p-Azidophenacyl)glutathione] showed a normalized bacterial growth of 0.976.

For `CCCCCCCC/C=C\CCCCCCCC(=O)O` [Oleic Acid], the normalized bacterial growth is 0.769.

As for `CC(C)(C)NCC(O)c1ccc(O)c(CO)c1` (stereo not given) [Albuterol hemisulfate], the normalized bacterial growth is 1.05.

`CC(C)(C)NCC(O)c1ccc(O)c(CO)c1` (stereo not given) [Salbutamol]: the normalized bacterial growth came to 1.19.

The compound `CCCCC[C@H](O)CC(=O)CCc1ccc(O)c(OC)c1` came in with a normalized bacterial growth of 0.858.

`O=C(O)c1ccccc1Nc1cccc(OCc2ccc3ccccc3n2)c1` displayed a normalized bacterial growth of 0.991.

As for `COc1cc(C(O)C(=O)O)ccc1O` (stereo not given) [()-Vanillylmandelic acid], the normalized bacterial growth worked out at 1.36.

Take `COc1ccc2cc1Oc1ccc(cc1)C[C@H]1c3c(cc4c(c3Oc3cc5c(cc3OC)CCN(C)[C@@H]5C2)OCO4)CCN1C`: the normalized bacterial growth was found to be 0.89.

Compound `c1ccc2c3c([nH]c2c1)[C@H]1[C@H]2CC[C@H]([C@@H]4CCCN[C@@H]42)N1CC3` registered a normalized bacterial growth of 0.918.

In the case of `COc1ccc(CC(=O)c2ccc(O)cc2O)cc1`, the normalized bacterial growth came to 0.711.

In the case of `COc1ccc(-c2cc(=O)c3c(O)cc(OC)c(OC)c3o2)c(OC)c1`, the normalized bacterial growth came to 0.829.

`CC(=O)O[C@H]1Cc2ccccc2N(C(N)=O)c2ccccc21` displayed a normalized bacterial growth of 1.01.

`O=C(NCC1CCCCN1)c1cc(OCC(F)(F)F)ccc1OCC(F)(F)F` (stereo not given) [Flecainide acetate]: the normalized bacterial growth turned out to be 0.757.

`CC1CCc2cc(F)cc3c(=O)c(C(=O)O)cn1c23` (stereo not given) displayed a normalized bacterial growth of 0.262.

`COc1cc2c(cc1OC)-c1c(oc3cc(O)cc(O)c3c1=O)CO2` returned a normalized bacterial growth of 1.08.

Take `CCCCOc1ccc(OCCCN2CCOCC2)cc1`: the normalized bacterial growth amounted to 0.997.

The compound `CC(C)[C@H]1CC[C@H](C(=O)N[C@H](Cc2ccccc2)C(=O)O)CC1` displayed a normalized bacterial growth of 0.994.

In turn, `COC(=O)/C(=C1/OC(=O)C(c2ccccc2)=C1O)c1ccccc1` yielded a normalized bacterial growth of 1.09 ± 0.41.

The compound `COc1c(O)cc2c(c1O)[C@@H]1O[C@H](CO)[C@@H](O)[C@H](O)[C@H]1OC2=O` registered a normalized bacterial growth of 0.985 ± 0.2.

Consider `COc1c(O)cc2c(c1O)[C@@H]1O[C@H](CO)[C@@H](O)[C@H](O)[C@H]1OC2=O` [Bergenin monohydrate], for which the normalized bacterial growth amounted to 1.21.

In turn, `COC(=O)[C@@H]1OC(=O)C2OC23[C@@]1(C)CCC1[C@]2(C)C(C[C@@H](O)[C@]13C)C(C)(C)[C@H](OC(C)=O)C[C@@H]2OC(C)=O` (stereo not given in full) displayed a normalized bacterial growth of 1.13.

(Values after the supplement of paper PMC10398353.)
